{"source": "paper PMC5457135", "key": {"CDPK4-3xHA (P. berghei)": {"target": "T1, CDPK4-3xHA (P. berghei) (UniProt P62345)", "T1 sequence (chain, myristoylated glycine 2 (large 63 kDa isoform))": "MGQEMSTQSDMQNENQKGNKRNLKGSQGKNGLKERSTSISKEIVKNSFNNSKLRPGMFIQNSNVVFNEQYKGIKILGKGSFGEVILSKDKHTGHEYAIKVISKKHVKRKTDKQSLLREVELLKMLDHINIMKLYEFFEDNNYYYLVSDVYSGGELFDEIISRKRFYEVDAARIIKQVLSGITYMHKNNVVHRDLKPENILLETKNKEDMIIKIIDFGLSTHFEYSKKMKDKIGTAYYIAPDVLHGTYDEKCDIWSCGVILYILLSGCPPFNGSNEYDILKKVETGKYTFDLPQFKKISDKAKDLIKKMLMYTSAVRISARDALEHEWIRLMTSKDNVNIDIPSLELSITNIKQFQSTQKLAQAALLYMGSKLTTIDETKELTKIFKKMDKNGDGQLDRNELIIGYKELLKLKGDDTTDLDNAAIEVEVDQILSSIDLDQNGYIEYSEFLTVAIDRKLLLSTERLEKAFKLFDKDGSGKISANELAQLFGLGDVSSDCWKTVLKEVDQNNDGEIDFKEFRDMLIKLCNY", "assay": "affinity purification with mass spectrometry; CDPK4-3xHA gametocytes, non-activated (0 s) and 15 s after XA activation with or without 1 µM 1294; fixed 10 min with 1% formaldehyde, lysed in RIPA buffer, benzonase nuclease added, anti-HA magnetic beads; eluate separated by gel, eight slices …; proteins found in the WT control left out"}, "CDPK4-2xmyc (P. berghei)": {"target": "T2, CDPK4-2xmyc (P. berghei) (UniProt P62345)", "T2 sequence (chain, myristoylated glycine 2 (large 63 kDa isoform))": "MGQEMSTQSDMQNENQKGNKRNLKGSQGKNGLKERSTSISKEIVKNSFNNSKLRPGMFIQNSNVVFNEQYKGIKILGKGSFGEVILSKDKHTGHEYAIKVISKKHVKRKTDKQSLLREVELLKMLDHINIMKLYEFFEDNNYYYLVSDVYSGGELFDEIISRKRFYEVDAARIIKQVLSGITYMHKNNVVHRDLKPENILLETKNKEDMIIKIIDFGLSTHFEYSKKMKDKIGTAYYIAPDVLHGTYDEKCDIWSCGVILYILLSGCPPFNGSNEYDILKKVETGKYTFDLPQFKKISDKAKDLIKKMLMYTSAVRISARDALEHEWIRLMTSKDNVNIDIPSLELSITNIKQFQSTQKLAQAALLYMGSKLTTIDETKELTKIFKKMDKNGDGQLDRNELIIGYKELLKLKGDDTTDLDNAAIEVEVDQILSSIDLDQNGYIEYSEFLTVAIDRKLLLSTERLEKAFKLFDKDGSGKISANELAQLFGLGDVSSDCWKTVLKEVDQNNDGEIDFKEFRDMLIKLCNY", "assay": "affinity purification with mass spectrometry; gametocytes of the CDPK4-2xmyc, CDPK4^G2A-2xmyc, MCM5-3xHA and SOC1-3xHA lines (non-activated; CDPK4-2xmyc also 15 s after activation with or without 1 µM 1294) and of CDPK4-3xHA and CDPK4-2xmyc 10 min after activation; fixed 10 min with 1% formaldehyde, lysed in RIPA buffer, anti-HA or anti-c-myc magnetic beads, digestion on the beads, LC-ESI-MS/MS; proteins found in the WT control left out"}, "MCM5-3xHA (P. berghei)": {"target": "MCM5-3xHA (P. berghei)", "assay": "affinity purification with mass spectrometry; gametocytes of the CDPK4-2xmyc, CDPK4^G2A-2xmyc, MCM5-3xHA and SOC1-3xHA lines (non-activated; CDPK4-2xmyc also 15 s after activation with or without 1 µM 1294) and of CDPK4-3xHA and CDPK4-2xmyc 10 min after activation; fixed 10 min with 1% formaldehyde, lysed in RIPA buffer, anti-HA or anti-c-myc magnetic beads, digestion on the beads, LC-ESI-MS/MS; proteins found in the WT control left out"}, "SOC1-3xHA (P. berghei)": {"target": "SOC1-3xHA (P. berghei)", "assay": "affinity purification with mass spectrometry; gametocytes of the CDPK4-2xmyc, CDPK4^G2A-2xmyc, MCM5-3xHA and SOC1-3xHA lines (non-activated; CDPK4-2xmyc also 15 s after activation with or without 1 µM 1294) and of CDPK4-3xHA and CDPK4-2xmyc 10 min after activation; fixed 10 min with 1% formaldehyde, lysed in RIPA buffer, anti-HA or anti-c-myc magnetic beads, digestion on the beads, LC-ESI-MS/MS; proteins found in the WT control left out"}}, "note": "These are yes or no findings as the source states them, for the method shown. Binding seen in cells or lysates may run through a third protein. A yes stands for co-enrichment or nearness to the bait. Other partners may have been found. For some of these results: Tags and fused reporters may be left off the sequences shown."}
{"molecule": "Cdt1 (P. berghei (endogenous in gametocytes))", "values": [{"measurement": "binding", "setting": "CDPK4-3xHA (P. berghei)", "value": "binds"}, {"measurement": "binding", "setting": "CDPK4-2xmyc (P. berghei)", "value": "binds"}]}
{"molecule": "MCM2 (P. berghei (endogenous in gametocytes))", "values": [{"measurement": "binding", "setting": "CDPK4-3xHA (P. berghei)", "value": "binds"}, {"measurement": "binding", "setting": "CDPK4-2xmyc (P. berghei)", "value": "binds"}]}
{"molecule": "MCM3 (P. berghei (endogenous in gametocytes))", "values": [{"measurement": "binding", "setting": "CDPK4-3xHA (P. berghei)", "value": "binds"}, {"measurement": "binding", "setting": "CDPK4-2xmyc (P. berghei)", "value": "binds"}]}
{"molecule": "MCM4 (P. berghei (endogenous in gametocytes))", "values": [{"measurement": "binding", "setting": "CDPK4-3xHA (P. berghei)", "value": "binds"}, {"measurement": "binding", "setting": "CDPK4-2xmyc (P. berghei)", "value": "binds"}]}
{"molecule": "MCM5 (P. berghei (endogenous in gametocytes))", "values": [{"measurement": "binding", "setting": "CDPK4-3xHA (P. berghei)", "value": "binds"}, {"measurement": "binding", "setting": "CDPK4-2xmyc (P. berghei)", "value": "binds"}]}
{"molecule": "MCM6 (P. berghei (endogenous in gametocytes))", "values": [{"measurement": "binding", "setting": "CDPK4-3xHA (P. berghei)", "value": "binds"}, {"measurement": "binding", "setting": "CDPK4-2xmyc (P. berghei)", "value": "binds"}]}
{"molecule": "MCM7 (P. berghei (endogenous in gametocytes))", "values": [{"measurement": "binding", "setting": "CDPK4-3xHA (P. berghei)", "value": "binds"}, {"measurement": "binding", "setting": "CDPK4-2xmyc (P. berghei)", "value": "binds"}]}
{"molecule": "ORC1 (P. berghei (endogenous in gametocytes))", "values": [{"measurement": "binding", "setting": "CDPK4-3xHA (P. berghei)", "value": "binds"}, {"measurement": "binding", "setting": "CDPK4-2xmyc (P. berghei)", "value": "binds"}]}
{"molecule": "ORC2 (P. berghei (endogenous in gametocytes))", "values": [{"measurement": "binding", "setting": "CDPK4-3xHA (P. berghei)", "value": "binds"}, {"measurement": "binding", "setting": "CDPK4-2xmyc (P. berghei)", "value": "binds"}]}
{"molecule": "ORC5 (P. berghei (endogenous in gametocytes))", "values": [{"measurement": "binding", "setting": "CDPK4-3xHA (P. berghei)", "value": "binds"}, {"measurement": "binding", "setting": "CDPK4-2xmyc (P. berghei)", "value": "binds"}]}
{"molecule": "PBANKA_051390 (P. berghei (endogenous in gametocytes))", "values": [{"measurement": "binding", "setting": "CDPK4-3xHA (P. berghei)", "value": "binds"}, {"measurement": "binding", "setting": "CDPK4-2xmyc (P. berghei)", "value": "binds"}]}
{"molecule": "PBANKA_110290 (P. berghei (endogenous in gametocytes))", "values": [{"measurement": "binding", "setting": "CDPK4-3xHA (P. berghei)", "value": "binds"}, {"measurement": "binding", "setting": "CDPK4-2xmyc (P. berghei)", "value": "binds"}]}
{"molecule": "PBANKA_134880 (P. berghei (endogenous in gametocytes))", "values": [{"measurement": "binding", "setting": "CDPK4-3xHA (P. berghei)", "value": "binds"}, {"measurement": "binding", "setting": "CDPK4-2xmyc (P. berghei)", "value": "binds"}]}
{"molecule": "CDPK4 (enzyme, UniProt P62345 1-528) MGQEMSTQSDMQNENQKGNKRNLKGSQGKNGLKERSTSISKEIVKNSFNNSKLRPGMFIQNSNVVFNEQYKGIKILGKGSFGEVILSKDKHTGHEYAIKVISKKHVKRKTDKQSLLREVELLKMLDHINIMKLYEFFEDNNYYYLVSDVYSGGELFDEIISRKRFYEVDAARIIKQVLSGITYMHKNNVVHRDLKPENILLETKNKEDMIIKIIDFGLSTHFEYSKKMKDKIGTAYYIAPDVLHGTYDEKCDIWSCGVILYILLSGCPPFNGSNEYDILKKVETGKYTFDLPQFKKISDKAKDLIKKMLMYTSAVRISARDALEHEWIRLMTSKDNVNIDIPSLELSITNIKQFQSTQKLAQAALLYMGSKLTTIDETKELTKIFKKMDKNGDGQLDRNELIIGYKELLKLKGDDTTDLDNAAIEVEVDQILSSIDLDQNGYIEYSEFLTVAIDRKLLLSTERLEKAFKLFDKDGSGKISANELAQLFGLGDVSSDCWKTVLKEVDQNNDGEIDFKEFRDMLIKLCNY", "values": [{"measurement": "binding", "setting": "MCM5-3xHA (P. berghei)", "value": "binds"}, {"measurement": "binding", "setting": "SOC1-3xHA (P. berghei)", "value": "binds"}]}
